Test results as given in article PMC10014601 (Frontiers in Molecular Biosciences, 2023).

Assay: Fmoc solid-phase peptide synthesis; chlorotrityl resin; PyBOP and HOBt with DIPEA (cyclization)
Details: whole synthesis

With “PEPTIDE1{[bAla].R.Y.F.F.D.M.W.Y}$PEPTIDE1,PEPTIDE1,9:R2-1:R1$$$V2.0” the isolated yield was 20% yield.

Some peptides are written in HELM: one residue between dots, names in brackets for other building blocks, links after the first $.
